Reference: PubChem BioAssay AID1159584 (Peter MacCallum Cancer Centre, 2016)
The deposit covers about 18,000 reagents; below is a random part of them. Not all columns of the deposit are shown. Not stated in the record: the amount of reagent, the time to read-out.

Screen: 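Genes whose loss is lethal only together with E-cadherin loss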 (primary screen)
Cell system: human MCF10A breast epithelial cells, parental and CDH1-null
Knock-down reagent: siRNA against human genes
Detection: 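Cell viability by CellTiter-Glo ATP luminescence, each line scaled to the mean of mock wells across plates, then CDH1-null over parental ratio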
Scale: CDH1-null / parental viability ratio: higher = CDH1-null cells survive relatively better than parental; CDH1-null viability vs mock: higher = more viable CDH1-null cells

Which result is listed for AKR1E2 (GeneID 83592)?
CDH1-null / parental viability ratio: 1.05; CDH1-null viability vs mock (fraction of mock): 1.02

With DIPK2A (GeneID 205428), how do the results read?
CDH1-null / parental viability ratio: 1.13; CDH1-null viability vs mock (fraction of mock): 0.96

What is on record for IGFL4 (GeneID 444882)?
CDH1-null / parental viability ratio: 1.02; CDH1-null viability vs mock (fraction of mock): 0.92

Which result is listed for OPN1SW (GeneID 611)?
CDH1-null / parental viability ratio: 1.92; CDH1-null viability vs mock (fraction of mock): 0.77

For EDIL3 (GeneID 10085), what does the deposit list?
CDH1-null / parental viability ratio: 1.27; CDH1-null viability vs mock (fraction of mock): 0.99

What did the screen give for SAG (GeneID 6295)?
CDH1-null / parental viability ratio: 1.1; CDH1-null viability vs mock (fraction of mock): 0.8

Which result is listed for PRPH2 (GeneID 5961)?
CDH1-null / parental viability ratio: 0.84; CDH1-null viability vs mock (fraction of mock): 0.64

With TMEM116 (GeneID 89894), what does the deposit list?
CDH1-null / parental viability ratio: 0.94; CDH1-null viability vs mock (fraction of mock): 0.77

With DYNC2I1 (GeneID 55112), how do the results read?
CDH1-null / parental viability ratio: 0.91; CDH1-null viability vs mock (fraction of mock): 0.78

With KRTAP4-5 (GeneID 85289), how do the results read?
CDH1-null / parental viability ratio: 1.01; CDH1-null viability vs mock (fraction of mock): 0.88

For INSL6 (GeneID 11172), how do the results read?
CDH1-null / parental viability ratio: 1.1; CDH1-null viability vs mock (fraction of mock): 0.66

How did the screen score CATIP (GeneID 375307)?
CDH1-null / parental viability ratio: 1.28; CDH1-null viability vs mock (fraction of mock): 0.82

How did the screen score POTEE (GeneID 445582)?
CDH1-null / parental viability ratio: 1; CDH1-null viability vs mock (fraction of mock): 0.44

Which result is listed for PDGFD (GeneID 80310)?
CDH1-null / parental viability ratio: 0.71; CDH1-null viability vs mock (fraction of mock): 0.64

Part of the list above, reduced to “CDH1-null viability vs mock (fraction of mock)”:
KRTAP4-5 (GeneID 85289) = 0.88
INSL6 (GeneID 11172) = 0.66
